Whole data set: some 33,000 sequences, median “E-score (-0.5 to 0.5)” near -0.015, cut for the highest 2% near 0.3. This is one part of the list.
These sequences were tested against T1, Abf1 (UniProt P14164) (assay: PBM E-score (8-mer binding enrichment) (E-score (-0.5 to 0.5)); higher = stronger / more preferred TF binding). Settings: protein concentration: 200 nM; construct: GST-full length.
T1 sequence: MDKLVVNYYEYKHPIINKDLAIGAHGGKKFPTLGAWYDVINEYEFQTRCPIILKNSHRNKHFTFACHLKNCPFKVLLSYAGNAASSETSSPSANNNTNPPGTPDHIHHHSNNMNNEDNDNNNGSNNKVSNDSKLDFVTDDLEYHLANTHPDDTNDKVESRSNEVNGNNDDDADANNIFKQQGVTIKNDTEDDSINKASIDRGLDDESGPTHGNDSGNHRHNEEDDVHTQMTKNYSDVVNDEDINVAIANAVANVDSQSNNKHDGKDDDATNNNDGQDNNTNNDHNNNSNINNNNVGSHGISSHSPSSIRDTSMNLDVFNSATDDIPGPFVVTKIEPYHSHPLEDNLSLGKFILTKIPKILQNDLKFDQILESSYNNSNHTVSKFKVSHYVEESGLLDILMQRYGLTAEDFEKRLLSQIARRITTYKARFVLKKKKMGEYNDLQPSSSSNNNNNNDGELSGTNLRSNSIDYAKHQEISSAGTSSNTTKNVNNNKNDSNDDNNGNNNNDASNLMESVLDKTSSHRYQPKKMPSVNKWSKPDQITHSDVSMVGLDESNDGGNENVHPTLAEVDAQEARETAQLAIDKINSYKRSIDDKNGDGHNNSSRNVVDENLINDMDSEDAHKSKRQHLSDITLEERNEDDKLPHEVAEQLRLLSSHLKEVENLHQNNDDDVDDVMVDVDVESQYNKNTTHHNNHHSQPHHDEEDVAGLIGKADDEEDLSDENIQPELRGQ
In short: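 Universal all-10-mer Agilent arrays, double-stranded by primer extension on fresh or once-stripped slides, were probed with about 100-200 nM GST-tagged yeast transcription factors made by PURExpress. Fluorescent anti-GST detected bound protein, and masliner normalised the scans. E-scores from the Universal PBM Analysis Suite were given to each ungapped eight-base word pooled with its reverse complement.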

| Sequence | PBM E-score |
| --- | --- |
| CTTTTCTC | 0.152 |
| CTGTGTCC | -0.0659 |
| TAGCCCTA | -0.149 |
| ACTCGGTA | -0.0607 |
| AAGATCAG | -0.115 |
| CGCGCAGC | -0.173 |
| CTCTGATA | 0.171 |
| CCTATTCG | 0.0568 |
| TAATGAGA | 0.0631 |
| CCTGGTCC | -0.205 |
| CAAGTCTA | 0.0238 |
| TAGGGCGA | -0.0932 |
| CATACTTA | 0.113 |
| GGCTCTCA | -0.224 |
| CCCTCCGA | -0.0812 |
| AATCTGAC | 0.177 |
| AGTGATTA | 0.351 |
| CGACTATC | 0.166 |
| ATAGAAAT | 0.113 |
| ATCCCCAA | -0.0599 |
| CTAAGGAG | -0.109 |
| CCCGTATC | 0.107 |
| TAGTCACA | 0.128 |
| GCCGGAAA | -0.0201 |
| GGTTGCAC | -0.0909 |

| Sequence | PBM E-score |
| --- | --- |
| GAGCCTCA | -0.133 |
| AAAGGAAT | -0.00419 |
| AGCTGGCC | -0.114 |
| GATAGGGC | -0.134 |
| GCGATTTA | 0.114 |
| GAATCTAA | 0.0358 |
| CATCCTAC | 0.195 |
| AGCCACTG | -0.158 |
| CCCCCGAA | -0.18 |
| AACACAGA | 0.0142 |
| CTGGTTGC | -0.0319 |
| GAATTAAC | 0.0822 |
| CAGTAGAC | 0.134 |
| GGTGGTTA | -0.252 |
| CACGGCGC | 0.139 |
| ACGGCTAT | 0.128 |
| CCGTTGTC | 0.174 |
| AAAATTGG | 0.0521 |
| GGGCTCGA | -0.187 |
| CTCTGTTC | -0.132 |
| CTAGAAAA | -0.00272 |
| ATGAGCTC | -0.15 |
| CAATACTC | 0.12 |
| CGATGGGC | -0.143 |
| CACGCGGC | -0.0475 |

Copied from the list:
In PBM E-score, CTAGAAAA has the entry -0.00272
In PBM E-score, GATAGGGC has the entry -0.134
In PBM E-score, ATGAGCTC has the entry -0.15

Going on with the list.

| Sequence | PBM E-score |
| --- | --- |
| AAGGACAC | 0.0575 |
| ACTGTCGC | 0.128 |
| GGTAAAAA | 0.0336 |
| GCTAAAGA | -0.0209 |
| TATCCAAA | 0.189 |
| TCTGATAA | 0.134 |
| GGTGGAAA | -0.00266 |
| GTGCCTCA | -0.279 |
| GTCCTTTA | -0.102 |
| ACCTCGTC | 0.103 |
| GGCGGGAC | -0.164 |
| CGCGCCAG | -0.204 |
| CACAAAGA | 0.0323 |
| GGCTTCGA | -0.107 |
| GATTCCAC | 0.0172 |
| AGGACCAC | -0.148 |
| ACGTAGAT | 0.15 |
| GTCGCAAC | 0.00745 |
| CTAACATA | -0.0195 |
| AAAGATTC | 0.134 |
| AAGGTGAC | 0.259 |
| GGATAATA | 0.173 |
| CTCTTGTA | -0.0473 |
| CCTCTCTA | -0.39 |
| GGCACGGA | -0.111 |

In another format: results already given
Sequence | PBM E-score
AAGGACAC | 0.0575
ACCTCGTC | 0.103
CACAAAGA | 0.0323
GGCACGGA | -0.111

Additional results follow:

| Sequence | PBM E-score |
| --- | --- |
| GACGCTTA | -0.01 |
| CTCCATAC | 0.151 |
| ACACTAGG | -0.0202 |
| GGGTACAC | -0.0053 |
| AAAACCAC | -0.097 |
| GCGCGTGA | 0.21 |
| CATACAGC | -0.258 |
| CCCAAGCA | -0.226 |
| GAAGCTCC | -0.124 |
| GGGAGCAA | -0.305 |
| GCCACGGC | -0.0347 |
| AGTCGTAA | 0.0165 |
| GCTCCAGC | -0.0487 |
| CGTGGCCC | -0.129 |
| AATCTCGA | -0.00869 |
| CGGATAAG | 0.0322 |
| ACCATATA | 0.247 |
| GGGGTGCA | -0.216 |
| CGACTGCG | -0.0701 |
| ACCCTAGT | -0.106 |
| CGAAACAA | 0.203 |
| ACCAAATG | 0.0408 |
| GTCATGAC | 0.221 |
| GCAATCCA | 0.0495 |
| GAAACTCA | -0.161 |

| Sequence | PBM E-score |
| --- | --- |
| AAGAGCGA | -0.179 |
| AATTTGAT | -0.0785 |
| CGTCGCTC | 0.233 |
| ATTTCGAC | -0.0821 |
| GGGCCCAC | -0.16 |
| ACCGCTCA | 0.0985 |
| GCAACAGC | -0.0613 |
| CGGGAGTA | 0.127 |
| ACTCGGAA | -0.0125 |
| CCCCAATC | -0.133 |
| TATCGGCA | -0.127 |
| ACAACCGC | 0.0488 |
| TTCAGCAA | -0.00597 |
| CCCCACAC | -0.1 |
| CCCCTTTC | -0.0997 |
| ACATAGAT | 0.0539 |
| CGCGGCGC | -0.00706 |
| ATCGCTGA | 0.111 |
| CAAGAGAC | 0.0097 |
| GGAGAAAC | -0.113 |
| TCACCGGA | -0.0856 |
| ATGTGATG | 0.0498 |
| ATCAAAGC | -0.0957 |
| TCGGCCGA | 0.0974 |
| TAGCTACA | 0.139 |

| Sequence | PBM E-score |
| --- | --- |
| TAGCGAAA | -0.00307 |
| ACAGCTGT | 0.048 |
| CCTCCTCA | -0.302 |
| AACTGAGT | -0.187 |
| AGCCCAGG | -0.313 |
| TCCAGACA | -0.27 |
| GACTTGTA | -9e-05 |
| GTAACTCA | 0.121 |
| GAGACGCC | -0.0858 |
| AATGGTAT | 0.0198 |
| AGACACGC | -0.0699 |
| AAGGAGGG | -0.262 |
| CTACCTCC | -0.108 |
| ACACTGCG | -0.143 |
| CAAACGGA | 0.0341 |
| AAAAAGGC | 0.151 |
| ACTGCCCT | 0.0979 |
| ACCCATAC | -0.00781 |
| AAAGTGCA | 0.0419 |
| TCTTATCA | 0.316 |
| CGATTTAC | 0.136 |
| AATGTTTA | -0.146 |
| ATTACCCA | 0.0876 |
| ACTAGGTC | 0.17 |
| GATCGCCC | 0.0433 |

| Sequence | PBM E-score |
| --- | --- |
| ACAAGCTA | -0.121 |
| CGACGGCC | 0.077 |
| ACGAGCCG | 0.231 |
| AGGAATTC | -0.164 |
| AAAACGCT | -0.0791 |
| ACCGTCCA | 0.116 |
| CAACTATA | -0.0129 |
| TGAATTAA | 0.227 |
| AGATTGGG | 0.0561 |
| CCTTCACC | -0.156 |
| ACGGGGTG | -0.0176 |
| AAAATTTC | 0.00567 |
| ACGTCAAT | 0.116 |
| CACCGCGA | -0.115 |
| ATGCAGCA | -0.015 |
| CAACGGTG | 0.0386 |
| AAAAAAAG | 0.0622 |
| AAAACACA | 0.179 |
| CCTCGGCG | 0.0652 |
| AACGGTCG | 0.203 |
| AAGTCGAC | 0.058 |
| AGGAGCCC | -0.145 |

Reference: the supplement of paper PMC3334620
